Measured values from PMC6783548.
These are yes or no findings as the source states them, for the method shown. Binding seen in cells or lysates may run through a third protein. Some binding calls cover weakened binding; strength is not graded here.

Chains of the proteins cited; added tags and fusions are not shown. Residues count along the entry.
UniProt P41738, residues 10-853: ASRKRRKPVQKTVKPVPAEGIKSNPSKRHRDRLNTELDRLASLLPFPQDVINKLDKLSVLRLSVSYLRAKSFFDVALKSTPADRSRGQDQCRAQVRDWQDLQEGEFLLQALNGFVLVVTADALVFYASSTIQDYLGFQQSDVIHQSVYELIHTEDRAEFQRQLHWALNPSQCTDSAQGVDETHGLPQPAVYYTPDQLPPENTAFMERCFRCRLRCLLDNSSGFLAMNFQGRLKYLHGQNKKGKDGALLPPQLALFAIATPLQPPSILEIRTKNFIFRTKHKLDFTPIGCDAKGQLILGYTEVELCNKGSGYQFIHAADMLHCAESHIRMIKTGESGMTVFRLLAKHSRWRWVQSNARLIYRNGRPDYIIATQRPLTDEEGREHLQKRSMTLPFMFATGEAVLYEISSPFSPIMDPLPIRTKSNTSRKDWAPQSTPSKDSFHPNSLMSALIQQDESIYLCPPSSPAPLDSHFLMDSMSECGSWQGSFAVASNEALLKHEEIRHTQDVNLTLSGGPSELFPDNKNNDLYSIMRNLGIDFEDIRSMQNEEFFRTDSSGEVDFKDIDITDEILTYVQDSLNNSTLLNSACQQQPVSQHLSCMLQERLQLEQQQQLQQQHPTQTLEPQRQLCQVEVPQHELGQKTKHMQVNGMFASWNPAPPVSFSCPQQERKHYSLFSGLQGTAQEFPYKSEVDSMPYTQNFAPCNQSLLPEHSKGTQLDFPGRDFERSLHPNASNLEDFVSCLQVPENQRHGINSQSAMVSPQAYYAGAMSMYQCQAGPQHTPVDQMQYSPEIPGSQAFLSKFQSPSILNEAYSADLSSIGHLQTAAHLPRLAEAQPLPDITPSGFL
UniProt P35869, residues 11-848: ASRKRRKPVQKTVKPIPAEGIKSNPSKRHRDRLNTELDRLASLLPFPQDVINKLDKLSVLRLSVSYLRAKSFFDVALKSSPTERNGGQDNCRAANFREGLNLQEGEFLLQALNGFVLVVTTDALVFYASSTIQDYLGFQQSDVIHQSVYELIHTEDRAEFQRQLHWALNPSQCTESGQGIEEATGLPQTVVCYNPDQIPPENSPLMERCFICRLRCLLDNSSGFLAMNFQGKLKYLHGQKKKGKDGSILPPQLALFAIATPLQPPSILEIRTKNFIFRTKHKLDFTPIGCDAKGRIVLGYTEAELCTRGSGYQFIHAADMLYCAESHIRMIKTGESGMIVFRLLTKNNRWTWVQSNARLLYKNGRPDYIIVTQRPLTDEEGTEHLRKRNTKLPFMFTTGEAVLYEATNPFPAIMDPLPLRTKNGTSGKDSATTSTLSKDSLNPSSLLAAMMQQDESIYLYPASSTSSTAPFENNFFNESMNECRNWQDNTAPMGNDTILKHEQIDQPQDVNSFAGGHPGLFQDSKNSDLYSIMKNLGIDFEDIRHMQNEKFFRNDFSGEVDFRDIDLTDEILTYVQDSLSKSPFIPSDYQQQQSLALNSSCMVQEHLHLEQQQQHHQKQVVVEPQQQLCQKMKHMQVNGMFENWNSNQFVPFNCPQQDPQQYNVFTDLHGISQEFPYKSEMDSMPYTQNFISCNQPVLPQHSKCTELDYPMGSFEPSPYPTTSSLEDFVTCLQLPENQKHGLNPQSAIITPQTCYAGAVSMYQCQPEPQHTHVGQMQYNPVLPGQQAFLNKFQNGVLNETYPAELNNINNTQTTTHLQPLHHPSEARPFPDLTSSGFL
UniProt P41739: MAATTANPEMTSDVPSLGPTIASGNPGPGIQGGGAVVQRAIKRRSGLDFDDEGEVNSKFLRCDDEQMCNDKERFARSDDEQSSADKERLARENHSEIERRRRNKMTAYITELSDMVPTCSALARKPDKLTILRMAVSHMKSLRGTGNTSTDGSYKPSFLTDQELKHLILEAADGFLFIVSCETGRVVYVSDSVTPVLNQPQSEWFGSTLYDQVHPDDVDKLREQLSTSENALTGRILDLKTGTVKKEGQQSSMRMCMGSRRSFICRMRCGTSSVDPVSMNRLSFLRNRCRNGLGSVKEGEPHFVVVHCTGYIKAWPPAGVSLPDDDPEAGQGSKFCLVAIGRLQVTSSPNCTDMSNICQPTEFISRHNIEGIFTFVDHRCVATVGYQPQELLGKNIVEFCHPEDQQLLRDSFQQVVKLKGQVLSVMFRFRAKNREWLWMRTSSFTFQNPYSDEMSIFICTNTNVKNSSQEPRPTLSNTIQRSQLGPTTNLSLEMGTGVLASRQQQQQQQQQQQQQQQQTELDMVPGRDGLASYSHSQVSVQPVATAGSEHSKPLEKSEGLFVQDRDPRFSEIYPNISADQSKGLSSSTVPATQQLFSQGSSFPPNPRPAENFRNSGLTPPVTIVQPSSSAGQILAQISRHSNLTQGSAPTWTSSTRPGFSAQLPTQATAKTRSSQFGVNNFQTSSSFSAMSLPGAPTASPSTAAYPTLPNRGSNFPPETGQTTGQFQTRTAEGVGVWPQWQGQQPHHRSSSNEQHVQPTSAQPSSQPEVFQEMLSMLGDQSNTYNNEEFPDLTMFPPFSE
UniProt P27540: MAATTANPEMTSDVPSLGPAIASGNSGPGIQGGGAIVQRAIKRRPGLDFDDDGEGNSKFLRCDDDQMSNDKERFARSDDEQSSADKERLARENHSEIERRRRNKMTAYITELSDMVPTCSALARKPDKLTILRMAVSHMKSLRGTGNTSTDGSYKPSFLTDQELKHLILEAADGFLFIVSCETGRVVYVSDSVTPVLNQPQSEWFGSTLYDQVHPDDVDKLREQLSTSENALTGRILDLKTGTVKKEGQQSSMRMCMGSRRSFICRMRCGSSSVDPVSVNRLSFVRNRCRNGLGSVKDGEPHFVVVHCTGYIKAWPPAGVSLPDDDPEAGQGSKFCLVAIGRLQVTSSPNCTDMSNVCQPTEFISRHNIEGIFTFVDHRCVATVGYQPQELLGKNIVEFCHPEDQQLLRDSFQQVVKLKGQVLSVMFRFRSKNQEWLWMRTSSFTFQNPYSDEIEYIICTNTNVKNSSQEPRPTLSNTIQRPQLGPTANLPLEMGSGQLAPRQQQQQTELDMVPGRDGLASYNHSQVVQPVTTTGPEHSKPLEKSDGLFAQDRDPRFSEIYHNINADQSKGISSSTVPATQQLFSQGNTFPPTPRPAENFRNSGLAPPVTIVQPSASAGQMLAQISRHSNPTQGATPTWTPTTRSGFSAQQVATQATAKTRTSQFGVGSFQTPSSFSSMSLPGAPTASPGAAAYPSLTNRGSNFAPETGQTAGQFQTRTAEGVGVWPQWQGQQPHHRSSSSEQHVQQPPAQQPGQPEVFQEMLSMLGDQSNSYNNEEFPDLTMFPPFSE

What was measured:
[1] = target: aryl hydrocarbon receptor (AHR), rat (rat (endogenous in hepatocytes of SD rats)) (UniProt P41738); assay: co-IP; endogenous proteins in hepatocytes from CRP^L CIA rats, Leflunomide-induced; method not named for this experiment (immunoprecipitation is the paper's only method for this read-out)
[2] = target: aryl hydrocarbon receptor (AHR) (human (endogenous in THLE-2 and human primary hepatocytes)) (UniProt P35869); assay: co-IP; endogenous proteins in THLE-2 lysates (HEPES lysis buffer pH 7.2, 50 mM NaCl, 0.5% Triton X-100), primary antibodies and protein A/G-agarose at 4 °C, western blot; cells treated with DMSO, Leflunomide or A77 1726 at a series of concentrations, CRP siRNA, CRP overexpressing vector, IL-6 pretreatment, HIF1α siRNA, ACF (5.0 μM), hypoxia
[3] = target: aryl hydrocarbon receptor (AHR) (human (endogenous in THLE-2 and human primary hepatocytes)) (UniProt P35869); assay: co-IP; endogenous proteins in lysates of IL-6-pretreated THLE-2 cells (overexpressing CRP) incubated with Leflunomide alone (NC siRNA); protein A/G-agarose at 4 °C, western blot
[4] = target: aryl hydrocarbon receptor (AHR) (human (endogenous in THLE-2 and human primary hepatocytes)) (UniProt P35869); assay: co-IP; endogenous proteins in human normal primary hepatocytes incubated with Leflunomide with or without Furafylline

Row | binding [1] | binding [2] | binding [3] | binding [4] | Substance
1 | binds |  |  |  | AHR nuclear translocator (ARNT), rat (from UniProt P41739 1-800)
2 |  | binds | binds weakly | binds | AHR nuclear translocator (ARNT) (from UniProt P27540 1-789)
